Some of these results come from one statement about several compounds together.
Molecular target: T1, human EDG-1 (S1P1) (Homo sapiens, UniProt P21453)
T1 construct: expressed in transfected cells
Test: GTP [γ-35S] binding assay, membranes from CHO cells expressing human EDG-1
Type: biochemical
Conditions: GTP [γ-35S] binding assays
Experimental: A. In Vitro: GPCR Activation Assay Measuring GTP [γ-^35S] Binding to Membranes Prepared from Cho Cells Expressing Human EDG Receptors
EDG-1 (S1P1) GTP [γ-^35S] binding assay: Homogenized membranes are prepared from CHO cell clones stably expressing a human EDG-1 N-terminal c-myc tag. Cells are grown in suspension in two 850 cm^2 roller bottles for three or fours days before harvesting. The cells are centrifuged down, washed once with cold PBS, and resuspended in ≦20 ml of Buffer A (20 mM HEPES, pH 7.4, 10 mM EDTA, EDTA-free complete protease inhibitor cocktail [1 tablet/25 ml]). The cell suspension is homogenized on ice, using a Polytron homogenizer at 30000 rpm at three intervals of 15 seconds each. The homogenate is first centrifuged at 2000 rpm on a tabletop low speed centrifuge for 10 minutes. The supernatant, after passing through a cell strainer, is then re-centrifuged at 50,000×g for 25 minutes at 4° C. The pellet is resuspended into buffer B (15% glycerol, 20 mM HEPES, pH 7.4, 0.1 mM EDTA, EDTA-free complete protease inhibitor cocktail [1 tablet/10 ml]). Protein concentration of the prep is determined using the BCA Protein Assay kit (Pierce) using BSA as standard. The membranes are aliquoted and kept frozen at −80° C.
Solutions of test compounds ranging from 10 mM to 0.01 nM are prepared in DMSO. S1P is diluted in 4% BSA solution as positive controls. […]

By UniProt entry, the sequences of proteins in these tests, tags left out.
UniProt P21453, whole entry: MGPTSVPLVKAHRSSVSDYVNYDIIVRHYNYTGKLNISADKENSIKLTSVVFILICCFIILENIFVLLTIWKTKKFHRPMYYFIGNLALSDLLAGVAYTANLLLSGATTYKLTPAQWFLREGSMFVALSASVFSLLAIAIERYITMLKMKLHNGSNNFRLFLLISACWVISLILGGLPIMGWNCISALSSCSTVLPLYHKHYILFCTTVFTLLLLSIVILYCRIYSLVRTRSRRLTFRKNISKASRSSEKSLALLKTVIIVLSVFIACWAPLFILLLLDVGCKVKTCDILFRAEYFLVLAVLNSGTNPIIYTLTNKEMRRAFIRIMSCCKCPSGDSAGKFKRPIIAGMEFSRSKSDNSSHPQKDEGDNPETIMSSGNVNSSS

SMILES | selectivity for EDG-1 compared to one or more of the other receptors including EDG-3, EDG-5, EDG-6 and EDG-8
CCc1cc(/C(C)=N/OCc2ccc(C3CCCCC3)c(C(F)(F)F)c2)ccc1CNCCC(=O)O [Example 2, 3-{4-[1-(4-Cyclohexyl-3-trifluoromethyl-benzyloxyimino)-ethyl]-2-ethyl-benzylamino}-propionic acid] | at least 1000 fold
CCc1cc(/C(C)=N/OCc2ccc(C3CCCCC3)c(C(F)(F)F)c2)ccc1CN1CC(C(=O)O)C1 [Example 3, 1-{4-[1-(4-Cyclohexyl-3-trifluoromethyl-benzyloxyimino)-ethyl]-2-ethyl-benzyl}-azetidine-3-carboxylic acid] | at least 1000 fold
